One molecule from publication PMC11610137, “TRIM4 enhances small-molecule-induced neddylated-degradation of CORO1A for triple negative breast cancer therapy” (Theranostics, 2024) can be followed below.

Amino acid sequences for entries named in this document (tags omitted).
UniProt P31146: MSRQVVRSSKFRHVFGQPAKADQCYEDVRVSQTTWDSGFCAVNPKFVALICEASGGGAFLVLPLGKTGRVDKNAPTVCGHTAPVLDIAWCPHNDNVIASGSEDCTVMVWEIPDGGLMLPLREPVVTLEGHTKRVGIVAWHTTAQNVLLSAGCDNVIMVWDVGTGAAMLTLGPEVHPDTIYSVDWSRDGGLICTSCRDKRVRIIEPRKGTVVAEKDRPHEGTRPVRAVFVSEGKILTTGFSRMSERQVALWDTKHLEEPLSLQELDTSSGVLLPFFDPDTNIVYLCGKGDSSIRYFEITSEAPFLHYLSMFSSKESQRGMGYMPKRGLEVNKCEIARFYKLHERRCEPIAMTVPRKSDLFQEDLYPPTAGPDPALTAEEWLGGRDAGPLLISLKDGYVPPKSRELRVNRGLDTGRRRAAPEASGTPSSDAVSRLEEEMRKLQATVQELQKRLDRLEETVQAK

These are yes or no findings as the source states them, for the method shown. Binding seen in cells or lysates may run through a third protein. A yes stands for co-enrichment or nearness to the bait. Other partners may have been found.

The assay has as its target Coronin 1A (CORO1A), endogenous in MDA-MB-231 cells (human (endogenous in MDA-MB-231)) (UniProt P31146). Kind of assay: affinity purification with mass spectrometry; MDA-MB-231 cells, control or AB (0.2 uM, 24 h); lysate incubated with anti-CORO1A overnight at 4°C, Protein A beads, gel bands analysed by LC-MS/MS.

B1: TRIM4, endogenous in MDA-MB-231 cells (protein, UniProt Q9C037 1-500)
chain: MEAEDIQEELTCPICLDYFQDPVSIECGHNFCRGCLHRNWAPGGGPFPCPECRHPSAPAALRPNWALARLTEKTQRRRLGPVPPGLCGRHWEPLRLFCEDDQRPVCLVCRESQEHQTHAMAPIDEAFESYRTGNFDIHVDEWKRRLIRLLLYHFKQEEKLLKSQRNLVAKMKKVMHLQDVEVKNATQWKDKIKSQRMRISTEFSKLHNFLVEEEDLFLQRLNKEEEETKKKLNENTLKLNQTIASLKKLILEVGEKSQAPTLELLQNPKEVLTRSEIQDVNYSLEAVKVKTVCQIPLMKEMLKRFQVAVNLAEDTAHPKLVFSQEGRYVKNTASASSWPVFSSAWNYFAGWRNPQKTAFVERFQHLPCVLGKNVFTSGKHYWEVESRDSLEVAVGVCREDVMGITDRSKMSPDVGIWAIYWSAAGYWPLIGFPGTPTQQEPALHRVGVYLDRGTGNVSFYSAVDGVHLHTFSCSSVSRLRPFFWLSPLASLVIPPVTDRK
Take B1: the binding result is “binds”.
